# Results: the supplement of paper PMC8104966
# This is one part of the list. This data set is noisy: repeats of one test often differ as much as different tests do.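 U2OS cells carrying ACE2 were mixed with U2OS cells carrying full-length spike, and fusion was scored by imaging as the share of nuclei showing both cell types' fluorescent markers. A compound counts as an inhibitory hit when it is non-toxic and its fusion z-score falls below -3, meaning more than three standard deviations below the plate's DMSO wells.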
# System: U2OS ACE2 x SARS-CoV-2 spike co-culture
# Assay: cell-cell fusion (fraction fused) z-score vs plate DMSO control; higher = more fusion
# Settings: 30 µM; 5 h; toxicity class: non-toxic, passed QC
row,Structure (SMILES),cell-cell fusion (z-score)
1,Cl.Cl.N=C(N)c1ccc(N)cc1 [4-Aminobenzamidine dihydrochloride],inactive: 1.72
2,C=C[C@@]1(C)CC(=O)[C@@]2(O)[C@](C)(O1)[C@@H](OC(C)=O)[C@@H](O)C1C(C)(C)CC[C@H](O)[C@@]12C (some centres not stated),active: -3.34
3,NCCCS(=O)(=O)[O-].[Na+] [3-Amino-1-propanesulfonic acid sodium],inactive: 1.58
4,COc1cc(Nc2c(C#N)cnc3cc(OCCCN4CCN(C)CC4)c(OC)cc23)c(Cl)cc1Cl [Bosutinib (SKI-606)],inactive: 2.32
5,C[C@H](N)[C@H](O)c1ccc(O)c(O)c1,inactive: -1.89
6,CN(C)CCC=C1c2ccccc2COc2ccccc21.Cl [Doxepin hydrochloride],inactive: 3.21
7,CSCC[C@H](NC(=O)[C@H](Cc1c[nH]c2ccccc12)NC(=O)CCNC(=O)OC(C)(C)C)C(=O)N[C@@H](CC(=O)O)C(=O)N[C@@H](Cc1ccccc1)C(N)=O [Pentagastrin],inactive: 2.46
8,Cc1nn(-c2ccccc2)c(C)c1C=NN1CCN(Cc2ccccc2)CC1,inactive: 2.89
9,COc1cc([C@H]2c3cc4c(cc3[C@@H](O[C@@H]3O[C@@H]5CO[C@@H](C)O[C@H]5[C@H](O)[C@@H]3O)[C@H]3COC(=O)[C@H]23)OCO4)cc(OC)c1O [Etoposide (VP-16)],inactive: 1.28
10,Clc1ccc(COC(Cn2ccnc2)c2ccc(Cl)cc2Cl)c(Cl)c1 (configuration not stated) [Miconazole],active: -9.45
11,NC(=O)c1cccc2cn(-c3ccc([C@@H]4CCCNC4)cc3)nc12 [Niraparib],inactive: 0.25
12,CC1(C)O[C@@H]2C[C@H]3[C@@H]4CCC5=CC(=O)C=C[C@]5(C)[C@@]4(F)[C@@H](O)C[C@]3(C)[C@]2(C(=O)CO)O1 [Triamcinolone acetonide],inactive: 2.47
13,CC(C)NCC(O)COc1ccc(COCCOC(C)C)cc1.O=C(O)/C=C/C(=O)O (configuration not stated),inactive: 3.31
14,CCCN1CCc2cccc3c2[C@H]1Cc1ccc(O)c(O)c1-3.Cl [R(-)-Propylnorapomorphine hydrochloride],active: -6.79
15,C=CCN1CCC23c4c5ccc(O)c4O[C@H]2C(=O)CC[C@@]3(O)[C@H]1C5.Cl,inactive: -0.449
16,Cn1cc(-c2cnn3c(N)c(Br)c([C@@H]4CCCNC4)nc23)cn1,inactive: 0.989
17,O=c1ccc2c(OCCCCc3ccccc3)c3ccoc3cc2o1 [Psora-4],inactive: 2.69
18,CC(=O)O[C@]1(C)CC[C@@]23CC1C(C)(C)[C@@H]2CC[C@H]3C,inactive: 2.23
19,C[C@H]1[C@H](C)CC[C@]2(C(=O)O)CC[C@]3(C)C(=CCC4[C@@]5(C)C[C@@H](O)[C@H](O)[C@@](C)(CO)C5[C@H](O)C[C@]43C)[C@H]12 (some centres not stated),inactive: 1.7
20,COc1ccc(CCn2nnnc2C2(c3ccc(C)cc3)CC2)cc1 [Mephetyl tetrazole],inactive: 3.39
21,CC(C)NCC(O)c1ccc(O)c(O)c1.Cl (configuration not stated) [Isoprenaline hydrochloride],inactive: 0.703
22,CC(=O)SC1CC2=CC(=O)CC[C@]2(C)C2CC[C@@]3(C)C(CC[C@@]34CCC(=O)O4)C12 (some centres not stated) [Spironolactone],inactive: 2
23,Cc1ncc(C[n+]2csc(CCO)c2C)c(N)n1.Cl.[Cl-] [Thiamine hydrochloride],inactive: 2.02

row,Structure (SMILES),cell-cell fusion (z-score)
1,CC(=O)OCC1=C(C(=O)[O-])N2C(=O)[C@@H](NC(=O)CSc3ccncc3)[C@H]2SC1.[Na+],inactive: 1.38
2,CC(=O)OCC(=O)[C@@]12N=C(C)O[C@@H]1CC1C3CCC4=CC(=O)C=C[C@]4(C)C3[C@@H](O)C[C@@]12C (some centres not stated),inactive: 1.01
3,CN(C)CC/C=C1/c2ccccc2COc2ccccc21.Cl,inactive: 1.73
4,Nc1nc2ncc(=O)[nH]c2c(=O)[nH]1,inactive: 2.53
5,CC(C)NC(C)Cc1ccc(I)cc1.Cl (configuration not stated) [Iofetamine hydrochloride],inactive: 1.05
6,N=C(N)c1ccc(OCCCCCOc2ccc(C(=N)N)cc2)cc1.O=S(=O)(O)CCO.O=S(=O)(O)CCO,inactive: 2.03
7,N=C(N)c1ccc(OCCCCCOc2ccc(C(=N)N)cc2)cc1.O=S(=O)(O)CCO.O=S(=O)(O)CCO [Pentamidine isethionate],inactive: -0.293
8,CC1=C(C(=O)O)N2C(=O)[C@@H](NC(=O)C(N)c3ccccc3)[C@H]2SC1 (some centres not stated),inactive: 1.08
9,CC1=C(C(=O)O)N2C(=O)[C@@H](NC(=O)C(N)c3ccccc3)[C@H]2SC1 (some centres not stated) [Cephalexin hydrate],inactive: 2.19
10,COc1ccccc1OCC(O)COC(N)=O (configuration not stated),inactive: -0.726
11,C#CCN(C)Cc1ccccc1.Cl [Pargyline hydrochloride],inactive: 0.721
12,C#CCN(C)Cc1ccccc1.Cl,inactive: 0.685
13,CO[C@H]1CC(O[C@@H]2/C(C)=C/C[C@@H]3C[C@@H](C[C@]4(CC[C@H](C)[C@@H](C5CCCCC5)O4)O3)OC(=O)[C@@H]3C=C(C)/C(=N/O)[C@H]4OC/C(=C\C=C\[C@@H]2C)[C@]43O)O[C@@H](C)C1O (some centres not stated),inactive: -1.71
14,Nc1nc2c(ncn2[C@@H]2O[C@H](CO)[C@@H](O)[C@@H]2O)c(=O)[nH]1 [Ara-G hydrate],inactive: 1.14
15,C=C1c2cccc(O)c2C(=O)C2=C(O)[C@]3(O)C(=O)C(C(N)=O)=C(O)[C@@H](N(C)C)[C@@H]3[C@@H](O)[C@H]12.Cl [Methacycline hydrochloride],inactive: 1.69
16,CCCOc1cc(N)ccc1C(=O)OCCN(CC)CC.Cl,inactive: 1.44
17,CS(=O)(=O)O.CSc1ccc2c(c1)C(N1CCN(C)CC1)Cc1ccccc1S2 (configuration not stated),active: -4.8
18,CCN1CCCC1CNC(=O)c1cc(S(=O)(=O)CC)c(N)cc1OC (configuration not stated) [Amisulpride],inactive: 0.789
19,CC(=O)CC(c1ccccc1)c1c([O-])c2ccccc2oc1=O.[Na+] (configuration not stated) [Warfarin sodium],inactive: 3.25
20,N[C@H](C(=O)O)[C@H](Cc1ccccc1)C(=O)O [L-Beta-threo-benzyl-aspartate],active: -3.43
21,Nc1ccc(S(=O)(=O)Nc2nccs2)cc1 [Sulfathiazole],inactive: 3
22,O=C1C2CC=CCC2C(=O)N1SC(Cl)(Cl)Cl (configuration not stated),inactive: 0.0224
23,C=C1C[C@@H]2[C@H](CC[C@]3(C)C(=O)CC[C@@H]23)[C@@]2(C)C=CC(=O)C=C12 [Exemestane],inactive: 2.12

# For convenience, part of the list above:
row,Structure (SMILES),cell-cell fusion (z-score)
19,CC(=O)CC(c1ccccc1)c1c([O-])c2ccccc2oc1=O.[Na+] (configuration not stated) [Warfarin sodium],inactive: 3.25
20,N[C@H](C(=O)O)[C@H](Cc1ccccc1)C(=O)O [L-Beta-threo-benzyl-aspartate],active: -3.43

# Remaining list, next part

row,Structure (SMILES),cell-cell fusion (z-score)
1,C[C@H](CCC(=O)O)[C@H]1CCC2C3C(CC[C@@]21C)[C@@]1(C)CC[C@@H](O)C[C@H]1C[C@@H]3O (some centres not stated),inactive: 1
2,O=c1c(-c2ccc(O)cc2)coc2cc(O)cc(O)c12 [Genistein],inactive: 1.32
3,CCc1cc(C(N)=S)ccn1 [Ethinamide],inactive: 2.57
4,C[C@]12CCC3c4ccc(OC(=O)c5ccccc5)cc4CCC3C1CCC2=O (some centres not stated),inactive: 2.79
5,CC1(C)S[C@@H]2[C@H](NC(=O)[C@H](N)c3ccccc3)C(=O)N2[C@H]1C(=O)[O-].[Na+],inactive: 1.38
6,CS(=O)(=O)c1ccc(C2=C(c3ccccc3)C(=O)OC2)cc1,inactive: 1.9
7,C[C@H]1COc2c(N3CCN(C)CC3)c(F)cc3c(=O)c(C(=O)O)cn1c23.C[C@H]1COc2c(N3CCN(C)CC3)c(F)cc3c(=O)c(C(=O)O)cn1c23.O [Levofloxacin Hemihydrate],inactive: 3.61
8,Cc1cccc(-c2nc(C(C)(C)C)[nH]c2-c2ccc3nccnc3c2)n1,inactive: 1.66
9,C[C@@H]1CC2C3CCC4=CC(=O)C=C[C@]4(C)[C@@]3(Cl)[C@@H](O)C[C@]2(C)[C@@]1(OC(=O)c1ccco1)C(=O)CCl (some centres not stated),inactive: 3.91
10,CCn1cc(C(=O)O)c(=O)c2cc(F)c(N3CCNCC3)cc21,inactive: -0.577
11,Cn1cnc(-c2cc3nccc(Oc4ccc(NC(=S)NC(=O)Cc5ccccc5)cc4F)c3s2)c1,inactive: 0.997
12,Nc1nc(CC(=O)Nc2ccc(CCNC[C@H](O)c3ccccc3)cc2)cs1 [Mirabegron],inactive: 0.262
13,Cc1cccc(C)c1NC(=O)C1CCCCN1C.Cl (configuration not stated),inactive: 1.72
14,CC(C)NCC(O)COc1ccc(CCOCC2CC2)cc1.Cl (configuration not stated),inactive: 3.25
15,CC(C)NCC(O)COc1ccc(CCOCC2CC2)cc1.Cl (configuration not stated) [Betaxolol hydrochloride],inactive: -0.409
16,CC(C)c1ccc2c(c1)c(SC(C)(C)C)c(CC(C)(C)C(=O)[O-])n2Cc1ccc(Cl)cc1.[Na+],inactive: 2.86
17,C/C(=C(/CCOP(=O)(O)O)SC(=O)c1ccccc1)N(C=O)Cc1cnc(C)nc1N.NCCO.NCCO,inactive: 2.86
18,CCOc1ccc(Cc2cc([C@]34OC[C@](CO)(O3)[C@@H](O)[C@H](O)[C@H]4O)ccc2Cl)cc1 [Ertugliflozin],inactive: 0.627
19,C=C(c1ccc(C(=O)O)cc1)c1cc2c(cc1C)C(C)(C)CCC2(C)C [Bexarotene],inactive: 0.123
20,Cl.NCCc1ccc(O)cc1 [4-Hydroxyphenethylamine hydrochloride],inactive: -0.0809
21,NC(=O)NS(=O)(=O)c1ccc(N)cc1,inactive: 2.03
